These results are taken from the supplement of paper PMC9433722.

One assay has as its system Saos-2. The experiment in a line: cell viability (CCK-8) relative to DMSO control (% of control); higher = less cytotoxic. Conditions: 10 µM; 48 h.
In another assay the test system is U2OS. Described as above. The conditions noted are these: 10 µM; 48 h.

Counter-ions that a name gives are not always drawn. The list shows a part of the results. Single values are uncertain, as repeats are few or missing.

Consider `CN(C)CCC(c1ccc(Br)cc1)c1ccccn1` (stereo not drawn) [Brompheniramine Maleate], for which the cell viability in the assay with Saos-2 amounted to 112; in the assay with U2OS it was 47.1.

Regarding `CN(C)CCOC(c1ccccc1)c1ccccc1` [Diphenhydramine·HCl], the results for the cell viability with Saos-2 and with U2OS were 62.9 and 105, respectively.

For the molecule `OCCN1C[C@H](O)[C@@H](O)[C@H](O)[C@H]1CO` [Miglitol], the cell viability was found to be 107 with Saos-2 and 122 in the assay on U2OS.

As to `CC(=O)CC(c1ccccc1)c1c(O)c2ccccc2oc1=O` (stereo not drawn) [Warfarin], the cell viability in the assay on Saos-2 came to 112; in the assay on U2OS, 78.3.

For the molecule `CC(C)(C)NC[C@H](O)COc1nsnc1N1CCOCC1` [Timolol maleate salt], the cell viability with Saos-2 is 64.5; with U2OS, 105.

For the molecule `COc1ccc2c(c1)c(CC(=O)O)c(C)n2C(=O)c1ccc(Cl)cc1` [Indomethacin], the cell viability was found to be 56.6 with Saos-2 and 108 in the assay with U2OS.

On to `CN1CCN(CCCN2c3ccccc3Sc3ccc(C(F)(F)F)cc32)CC1` [Trifluoperazine . Dihydrochloride], for which the cell viability stood at 54 in the assay on Saos-2 and 106 in the assay on U2OS.

With `CC(C)(C)NC(=O)[C@H]1CC[C@H]2[C@@H]3CC[C@H]4NC(=O)C=C[C@]4(C)[C@H]3CC[C@]12C` [Finasteride], the cell viability came to 70.9 in the assay on Saos-2 and 101 in the assay with U2OS.

For the molecule `Cc1ncc([N+](=O)[O-])n1CCO` [Metronidazole], the cell viability with Saos-2 came to 73.9; in the assay with U2OS, 101.

On to `CN(CCOc1ccc(CC2SC(=O)NC2=O)cc1)c1ccccn1` (stereo not drawn) [Rosiglitazone], for which the cell viability in the assay on Saos-2 amounted to 56.9; in the assay on U2OS it was 112.

Turning to `CN(C)[C@@H]1C(O)=C(C(N)=O)C(=O)[C@@]2(O)C(O)=C3C(=O)c4c(O)cccc4[C@@](C)(O)[C@H]3[C@H](O)[C@@H]12` [Oxytetracycline·HCl], the cell viability in the assay with Saos-2 came out at 114; in the assay on U2OS it was 103.

As to `CC1(C)S[C@@H]2[C@H](NC(=O)COc3ccccc3)C(=O)N2[C@H]1C(=O)O` [Penicillin V Potassium], the cell viability turned out to be 65.6 with Saos-2 and 103 with U2OS.

In the case of `CCN1CC(CCN2CCOCC2)C(c2ccccc2)(c2ccccc2)C1=O` (stereo not drawn) [Doxapram·HCl H2O], the cell viability is 117 with Saos-2 and 105 in the assay with U2OS.

As to `C=C(c1ccc(C(=O)O)cc1)c1cc2c(cc1C)C(C)(C)CCC2(C)C` [Bexarotene], the cell viability turned out to be 63 in the assay on Saos-2 and 101 in the assay on U2OS.

In the case of `COc1ccc2[nH]c([S@@+]([O-])Cc3ncc(C)c(OC)c3C)nc2c1` [Esomeprazole Potassium], the cell viability came out at 74.1 in the assay with Saos-2 and 107 with U2OS.

For `COc1cccc2c1C(=O)c1c(O)c3c(c(O)c1C2=O)C[C@@](O)(C(=O)CO)C[C@@H]3O[C@H]1C[C@H](N)[C@H](O)[C@H](C)O1` [Doxorubicin . HCl], the cell viability in the assay on Saos-2 was determined as 27.9; in the assay with U2OS, 28.5.

As for `Clc1ccc2c(c1)C(N1CCNCC1)=Nc1ccccc1O2` [Amoxapine], the cell viability in the assay with Saos-2 was 55.6; in the assay on U2OS it was 102.

Consider `O=C(O)COCCN1CCN([C@H](c2ccccc2)c2ccc(Cl)cc2)CC1` [Levocetirizine Dihydrochloride], for which the cell viability in the assay with Saos-2 is 109; in the assay with U2OS it was 95.

Consider `CC(CN(C)C)CN1c2ccccc2CCc2ccccc21` (stereo not drawn) [Trimipramine Maleate], for which the results for the cell viability in the assay on Saos-2 and in the assay on U2OS were 93.2 and 75, respectively.

Consider `COC(=O)C1=C(C)NC(C)=C(C(=O)OCCN(C)Cc2ccccc2)C1c1cccc([N+](=O)[O-])c1` (stereo not drawn) [Nicardipine . hydrochloride], for which the cell viability in the assay with Saos-2 worked out at 64.7; with U2OS it was 87.8.

As for `N=C(N)NC(=O)Cc1c(Cl)cccc1Cl` [Guanfacine·HCl], the cell viability with Saos-2 stood at 57.1; with U2OS it was 130.

For `CO[C@H]1/C=C/O[C@@]2(C)Oc3c(C)c(O)c4c(O)c(c(/C=N/N5CCN(C6CCCC6)CC5)c(O)c4c3C2=O)NC(=O)/C(C)=C\C=C\[C@H](C)[C@H](O)[C@@H](C)[C@@H](O)[C@@H](C)[C@H](OC(C)=O)[C@@H]1C` [Rifapentine], the cell viability came out at 114 in the assay with Saos-2 and 98.8 in the assay on U2OS.

In the case of `CNCC[C@@H](Oc1ccccc1C)c1ccccc1` [Atomoxetine . Hydrochloride], the values for the cell viability in the assay with Saos-2 and in the assay with U2OS were 109 and 85.7, respectively.

Regarding `CC1(C)S[C@@H]2[C@H](NC(=O)[C@H](N)c3ccccc3)C(=O)N2[C@H]1C(=O)O` [Ampicillin Trihydrate], the cell viability in the assay on Saos-2 amounted to 66.8; with U2OS, 99.2.

Consider `COc1ccnc(C[S+]([O-])c2nc3cc(OC(F)F)ccc3[nH]2)c1OC` (stereo not drawn) [Pantoprazole], for which the cell viability with Saos-2 stood at 66.5; in the assay on U2OS, 87.5.

With `COc1cccc2c1C(=O)c1c(O)c3c(c(O)c1C2=O)C[C@@](O)(C(=O)CO)C[C@@H]3O[C@H]1C[C@H](N)[C@@H](O)[C@H](C)O1` [Epirubicin·HCl], the cell viability in the assay on Saos-2 stood at 29.5; with U2OS, 28.6.

Take `Cn1cnc([N+](=O)[O-])c1Sc1ncnc2[nH]cnc12` [Azathioprine]: the cell viability in the assay on Saos-2 came to 55.9; in the assay with U2OS, 80.3.

For `CCC1(C)CC(=O)NC1=O` (stereo not drawn) [Ethosuximide], the values for the cell viability in the assay with Saos-2 and in the assay on U2OS were 109 and 97, respectively.

Turning to `CCCNC(C)C(=O)Nc1c(C)csc1C(=O)OC` (stereo not drawn) [Articaine·HCl], the figures for the cell viability in the assay on Saos-2 and in the assay with U2OS were 119 and 103, respectively.

Take `C[C@@H]1C[C@H]2[C@@H]3CCC4=CC(=O)C=C[C@]4(C)[C@@]3(F)[C@@H](O)C[C@]2(C)[C@@]1(O)C(=O)CO` [Dexamethasone]: the cell viability was determined as 57.2 in the assay with Saos-2 and 103 in the assay on U2OS.

In the case of `O=C1CCc2ccc(OCCCCN3CCN(c4cccc(Cl)c4Cl)CC3)cc2N1` [Aripiprazole], the results for the cell viability with Saos-2 and with U2OS were 57.3 and 102, respectively.

Turning to `CCCCC(C)(O)C/C=C/[C@H]1[C@H](O)CC(=O)[C@@H]1CCCCCCC(=O)OC` (mixture of isomers) [Misoprostol], the cell viability turned out to be 64.3 in the assay with Saos-2 and 98.5 in the assay with U2OS.

With `O=C1NC(=O)C(c2ccccc2)(c2ccccc2)N1` [Phenytoin], the cell viability in the assay on Saos-2 is 62.5; in the assay with U2OS, 108.

As to `Nc1c(CC(=O)O)cccc1C(=O)c1ccc(Br)cc1` [Bromfenac], the cell viability in the assay with Saos-2 came out at 106; with U2OS it was 103.

In the case of `Clc1ccc(COC(Cn2ccnc2)c2ccc(Cl)cc2Cl)c(Cl)c1` (stereo not drawn) [Miconazole nitrate], the cell viability with Saos-2 amounted to 112; with U2OS it was 143.

As to `CCN(CC)CCNC(=O)c1cc(Cl)c(N)cc1OC` [Metoclopramide·HCl], the cell viability in the assay with Saos-2 came out at 64.4; in the assay on U2OS, 108.

As to `Cc1ccc(C(=O)c2ccc(CC(=O)O)n2C)cc1` [Tolmetin sodium dihydrate], the figures for the cell viability with Saos-2 and in the assay on U2OS were 66.5 and 98.3, respectively.

As to `NS(=O)(=O)c1cc2c(cc1Cl)NCNS2(=O)=O` [Hydrochlorothiazide], the cell viability in the assay on Saos-2 was 109; in the assay on U2OS, 85.8.

Turning to `OCc1cc(C(O)CNCCCCCCOCCCCc2ccccc2)ccc1O` (stereo not drawn) [Salmeterol], the cell viability is 60.2 in the assay on Saos-2 and 123 with U2OS.

Turning to `C[C@]12CC[C@@H]3c4ccc(O)cc4C[C@@H](CCCCCCCCC[S+]([O-])CCCC(F)(F)C(F)(F)F)[C@H]3[C@@H]1CC[C@@H]2O` (stereo partly drawn) [Fulvestrant], the cell viability with Saos-2 is 66.6; in the assay on U2OS it was 104.

For the molecule `Nc1nc(F)nc2c1ncn2[C@@H]1O[C@H](COP(=O)(O)O)[C@@H](O)[C@@H]1O` [Fludarabine Phosphate], the results for the cell viability in the assay with Saos-2 and in the assay with U2OS were 87.7 and 69.6, respectively.

For the molecule `NS(=O)(=O)c1cc2c(cc1Cl)N=CNS2(=O)=O` [Chlorothiazide], the cell viability was found to be 102 in the assay on Saos-2 and 80.3 with U2OS.

As to `Cc1onc(-c2ccccc2)c1C(=O)N[C@@H]1C(=O)N2[C@@H]1SC(C)(C)[C@@H]2C(=O)O` [Oxacillin sodium salt monohydrate], the cell viability in the assay with Saos-2 was 68.8; in the assay with U2OS, 94.2.

Take `CC(CCc1ccc(O)cc1)NCCc1ccc(O)c(O)c1` (stereo not drawn) [Dobutamine·HCl]: the figures for the cell viability in the assay with Saos-2 and with U2OS were 55.8 and 117, respectively.

As to `CC(=O)OCC(=O)[C@@]12OC(C)(C)O[C@@H]1C[C@H]1[C@@H]3C[C@H](F)C4=CC(=O)C=C[C@]4(C)[C@@]3(F)[C@@H](O)C[C@@]12C` [Fluocinonide], the cell viability is 110 in the assay on Saos-2 and 101 in the assay with U2OS.

As to `CO[C@H]1/C=C/O[C@@]2(C)Oc3c(C)c(O)c4c(O)c(c5c(nc6cc(C)ccn65)c4c3C2=O)NC(=O)/C(C)=C\C=C\[C@H](C)[C@H](O)[C@@H](C)[C@@H](O)[C@@H](C)[C@H](OC(C)=O)[C@@H]1C` [Rifaximin], the cell viability with Saos-2 was 109; in the assay on U2OS, 103.

With `Nc1c2c(nc3ccccc13)CCCC2` [Tacrine·HCl], the cell viability in the assay on Saos-2 amounted to 54.7; with U2OS it was 110.

For `CC(=O)[C@@]1(O)CC[C@H]2[C@@H]3C[C@H](C)C4=CC(=O)C=C[C@]4(C)[C@@]3(F)[C@@H](O)C[C@@]21C` [Fluorometholone], the cell viability in the assay with Saos-2 came out at 112; in the assay with U2OS, 100.

In the case of `COc1ccccc1OCC(O)COC(N)=O` (stereo not drawn) [Methocarbamol], the results for the cell viability in the assay with Saos-2 and in the assay on U2OS were 101 and 109, respectively.

Regarding `CCCCc1nc(Cl)c(CO)n1Cc1ccc(-c2ccccc2-c2nnn[nH]2)cc1` [Losartan Potassium], the cell viability with Saos-2 amounted to 69.6; in the assay with U2OS it was 53.8.

For the molecule `C#Cc1cccc(Nc2ncnc3cc(OCCOC)c(OCCOC)cc23)c1` [Erlotinib HCl], the cell viability in the assay with Saos-2 is 54.6; with U2OS, 86.6.

For the molecule `C[C@@H](O)[C@H]1C(=O)N2C(C(=O)O)=C(S[C@@H]3CN[C@H](C(=O)N(C)C)C3)[C@H](C)[C@H]12` [Meropenem], the values for the cell viability in the assay on Saos-2 and in the assay with U2OS were 64.1 and 95.4, respectively.

As to `CC(C)NCC(O)COc1cccc2[nH]ccc12` (stereo not drawn) [Pindolol], the cell viability in the assay with Saos-2 was 61.4; in the assay with U2OS, 117.

As for `CCC(=O)O[C@]1(C(=O)CCl)[C@@H](C)C[C@H]2[C@@H]3CCC4=CC(=O)C=C[C@]4(C)[C@@]3(F)[C@@H](O)C[C@@]21C` [Clobetasol Propionate], the results for the cell viability in the assay on Saos-2 and in the assay with U2OS were 69.4 and 93.4, respectively.

`NS(=O)(=O)c1cc2c(cc1C(F)(F)F)NCNS2(=O)=O` [Hydroflumethiazide]: the cell viability worked out at 116 with Saos-2 and 89.2 with U2OS.

`CC(C)[C@H]1CC[C@H](C(=O)N[C@H](Cc2ccccc2)C(=O)O)CC1` [Nateglinide]: the cell viability was 62.1 with Saos-2 and 107 in the assay with U2OS.

With `Nc1nc(=O)[nH]cc1F` [Flucytosine], the cell viability was 118 in the assay with Saos-2 and 78.3 with U2OS.

As to `Nc1ccc(C(=O)O)c(O)c1` [4-Aminosalicylic Acid], the cell viability amounted to 65.1 with Saos-2 and 110 in the assay with U2OS.

Regarding `CCN(CC)CC(=O)Nc1c(C)cccc1C` [Lidocaine . hydrochloride . hydrate], the cell viability in the assay on Saos-2 worked out at 63.8; in the assay on U2OS, 105.

Turning to `CN1CCC[C@@H]1CCO[C@](C)(c1ccccc1)c1ccc(Cl)cc1` [Clemastine Fumarate], the cell viability with Saos-2 was 61.2; in the assay on U2OS it was 90.

`Nc1nc(/C(=C/CC(=O)O)C(=O)N[C@@H]2C(=O)N3C(C(=O)O)=CCS[C@H]23)cs1` [Ceftibuten]: the cell viability in the assay with Saos-2 worked out at 99.3; in the assay with U2OS, 46.3.

In the case of `O=C(C1CCCCC1)N1CC(=O)N2CCc3ccccc3C2C1` (stereo not drawn) [Praziquantel], the cell viability with Saos-2 worked out at 64.4; with U2OS, 102.

Turning to `O=S(=O)(O)CCS` [Mesna], the cell viability in the assay with Saos-2 amounted to 103; in the assay with U2OS, 88.4.

With `COC(=O)CCC(=O)CN` [Methyl δ-aminolevulinate hydrochloride], the cell viability is 103 in the assay with Saos-2 and 114 in the assay on U2OS.
